Results reported in the supplement of paper PMC6078165.

System: HCC1143
Assay: relative JC-1 red fluorescence (viability) vs pre-drug, coculture with fibroblast (fraction); higher = more viable cancer cells
Protocol: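 JC-1 labelled TNBC cells cocultured 1:1 (1,500 cells each) with CellTrace Violet stained primary or stromal fibroblasts in 384-well plates in FluoroBrite medium, treated with one of 42 anticancer drugs at 0.1, 1, 10 or 100 uM. JC-1 red fluorescence (mitochondrial integrity in cancer cells only) was read by plate reader every 8 h for 72 h. Values are normalised to each well's pre-drug value. The stock of one drug was tenfold lower, so its dose labels may be too high.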

CO[C@H]1C[C@@H]2CC[C@@H](C)[C@@](O)(O2)C(=O)C(=O)N2CCCC[C@H]2C(=O)O[C@H]([C@H](C)C[C@@H]2CC[C@@H](O)[C@H](OC)C2)CC(=O)[C@H](C)/C=C(\C)[C@@H](O)[C@@H](OC)C(=O)[C@H](C)C[C@H](C)/C=C/C=C/C=C/1C [Rapamycin]
relative JC-1 red fluorescence
Conditions	8 h	16 h	24 h	32 h	40 h	48 h	56 h	64 h	72 h
0.1 µM, coculture fibroblast: C12385	0.84	0.76	0.67	0.614	0.543	0.492	0.453	0.411	0.397
0.1 µM, coculture fibroblast: H6013	0.749	0.683	0.653	0.63	0.577	0.584	0.559	0.554	0.519
0.1 µM, coculture fibroblast: H6019	0.793	0.727	0.68	0.619	0.596	0.585	0.558	0.543	0.525
0.1 µM, coculture fibroblast: H6076	0.794	0.814	0.752	0.679	0.6365	0.6144	0.577	0.5549	0.5587
0.1 µM, coculture fibroblast: H6231	0.825	0.854	0.795	0.646	0.684	0.652	0.614	0.579	0.56
0.1 µM, coculture fibroblast: HADF	0.726	0.673	0.65	0.662	0.5492	0.533	0.505	0.484	0.492
0.1 µM, coculture fibroblast: HCFa	0.764	0.672	0.629	0.616	0.514	0.484	0.448	0.409	0.411
0.1 µM, coculture fibroblast: HCPF	0.845	0.8475	0.793	0.724	0.714	0.677	0.636	0.6	0.6
0.1 µM, coculture fibroblast: HHSteC	0.827	0.7627	0.733	0.695	0.612	0.593	0.549	0.524	0.487
0.1 µM, coculture fibroblast: HMF	0.809	0.848	0.79	0.703	0.712	0.684	0.651	0.609	0.58
0.1 µM, coculture fibroblast: HPFa	0.9009	0.798	0.768	0.6743	0.616	0.5965	0.553	0.522	0.494
0.1 µM, coculture fibroblast: HUF	0.856	0.799	0.736	0.652	0.613	0.59	0.554	0.53	0.517
0.1 µM, coculture fibroblast: Hs5	0.8348	0.9158	0.8448	0.784	0.72	0.679	0.633	0.598	0.575
0.1 µM, coculture fibroblast: Hs27A	0.657	0.556	0.519	0.548	0.417	0.406	0.37	0.347	0.356
0.1 µM, coculture fibroblast: Hs343T	0.8164	0.867	0.813	0.71956	0.695	0.658	0.603	0.578	0.543
0.1 µM, coculture fibroblast: WS1	0.8296	0.762	0.7036	0.606	0.542	0.4925	0.445	0.4164	0.394
1 µM, coculture fibroblast: C12385	0.8548	0.823	0.782	0.727	0.665	0.631	0.598	0.562	0.546
1 µM, coculture fibroblast: H6013	0.738	0.661	0.631	0.621	0.542	0.533	0.498	0.491	0.485
1 µM, coculture fibroblast: H6019	0.827	0.77	0.728	0.67	0.625	0.605	0.582	0.567	0.547
1 µM, coculture fibroblast: H6076	0.7962	0.844	0.825	0.763	0.739	0.723	0.698	0.68	0.688
1 µM, coculture fibroblast: H6231	0.8165	0.819	0.765	0.68	0.671	0.641	0.618	0.591	0.581
1 µM, coculture fibroblast: HADF	0.748	0.724	0.711	0.729	0.65	0.64	0.62	0.601	0.608
1 µM, coculture fibroblast: HCFa	0.761	0.712	0.684	0.671	0.579	0.554	0.511	0.485	0.471
1 µM, coculture fibroblast: HCPF	0.7833	0.867	0.822	0.659	0.716	0.668	0.635	0.607	0.595
1 µM, coculture fibroblast: HHSteC	0.844	0.786	0.771	0.749	0.663	0.634	0.586	0.562	0.533
1 µM, coculture fibroblast: HMF	0.803	0.894	0.85	0.721	0.7542	0.713	0.674	0.641	0.622
1 µM, coculture fibroblast: HPFa	0.987	0.96863	0.9454	0.846	0.808	0.777	0.726	0.7	0.678
1 µM, coculture fibroblast: HUF	0.871	0.819	0.777	0.699	0.656	0.63	0.59	0.567	0.542
1 µM, coculture fibroblast: Hs5	0.847	0.89	0.8452	0.7945	0.732	0.687	0.661	0.634	0.628
1 µM, coculture fibroblast: Hs27A	0.703	0.644	0.618	0.652	0.518	0.515	0.481	0.465	0.467
1 µM, coculture fibroblast: Hs343T	0.8156	0.93	0.893	0.756	0.78	0.74	0.687	0.658	0.643
1 µM, coculture fibroblast: WS1	0.856	0.801	0.748	0.663	0.608	0.563	0.527	0.504	0.485

Values are relative to the signal before dosing, not to a vehicle control; the signal also falls without drug.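 Fibroblast labels denote human fibroblasts, mainly primary ones from uterus (C12385, HUF), lung (H6013), bone (Hs27A), adrenal (HADF) and skin (WS1), plus mammary HMF and breast cancer-associated Hs343T. Cancer cells are basal-like or mesenchymal-like triple-negative breast cancer lines. A hit is a response shift exceeding 3x replicate standard deviation. The tissue of the other fibroblasts is not given here.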
